The record followed here is publication PMC11339035.

Protein sequences, listed by entry. Tags and fused reporters are not part of them.
UniProt Q91VJ5: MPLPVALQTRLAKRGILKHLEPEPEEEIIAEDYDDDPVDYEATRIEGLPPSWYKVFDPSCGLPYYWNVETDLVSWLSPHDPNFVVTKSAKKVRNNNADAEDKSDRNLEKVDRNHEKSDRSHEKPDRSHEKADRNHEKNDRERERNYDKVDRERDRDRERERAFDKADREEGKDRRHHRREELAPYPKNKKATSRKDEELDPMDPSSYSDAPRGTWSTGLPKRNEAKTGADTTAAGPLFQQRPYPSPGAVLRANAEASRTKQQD
UniProt Q91YD9: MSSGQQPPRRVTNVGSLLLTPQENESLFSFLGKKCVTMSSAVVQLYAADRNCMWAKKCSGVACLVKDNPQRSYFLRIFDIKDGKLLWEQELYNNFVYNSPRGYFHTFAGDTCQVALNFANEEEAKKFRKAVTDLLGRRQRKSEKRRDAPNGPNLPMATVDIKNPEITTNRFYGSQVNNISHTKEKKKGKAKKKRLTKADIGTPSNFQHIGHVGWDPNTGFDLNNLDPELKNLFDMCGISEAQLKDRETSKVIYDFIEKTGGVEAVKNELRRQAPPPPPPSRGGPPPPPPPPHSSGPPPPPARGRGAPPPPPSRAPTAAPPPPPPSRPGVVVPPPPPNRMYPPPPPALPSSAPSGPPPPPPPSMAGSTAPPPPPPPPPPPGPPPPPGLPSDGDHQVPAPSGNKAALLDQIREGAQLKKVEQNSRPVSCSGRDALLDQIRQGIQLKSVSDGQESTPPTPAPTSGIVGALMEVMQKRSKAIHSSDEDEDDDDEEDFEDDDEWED

The target in this experiment is Polyglutamine-binding protein 1 (PQBP1), endogenous in mouse brain and hippocampal neurons (mouse (endogenous in brain and hippocampal neurons)) (UniProt Q91VJ5). In words: co-IP; cytoplasmic proteins from brains of 8-10-day-old C57BL/6 mice; anti-PQBP1 polyclonal antibody or pre-immunized rabbit serum, protein A beads, 4 °C; Western blot.

These are yes or no findings as the source states them, for the method shown. Binding seen in cells or lysates may run through a third protein. Some results given as binding are weak or reduced against the parent protein; the word gives no strength.

“neural Wiskott-Aldrich syndrome protein (N-WASP), endogenous in mouse brain and hippocampal neurons (from UniProt Q91YD9 1-501)”: the binding entry was “binds”.
